Laboratory results as given in publication PMC3088709, “Phosphorylation of the Yeast γ-Tubulin Tub4 Regulates Microtubule Function” (PLoS ONE, 2011).
These are yes or no findings as the source states them, for the method shown. Binding seen in cells or lysates may run through a third protein. Some results given as binding are weak or reduced against the parent protein; the word gives no strength. Tags and fused reporters may be left off the sequences shown.

Biological target: T1, Tub4 with six copies of the hemagglutinin epitope HA (S. cerevisiae) (UniProt P53378)
T1 sequence: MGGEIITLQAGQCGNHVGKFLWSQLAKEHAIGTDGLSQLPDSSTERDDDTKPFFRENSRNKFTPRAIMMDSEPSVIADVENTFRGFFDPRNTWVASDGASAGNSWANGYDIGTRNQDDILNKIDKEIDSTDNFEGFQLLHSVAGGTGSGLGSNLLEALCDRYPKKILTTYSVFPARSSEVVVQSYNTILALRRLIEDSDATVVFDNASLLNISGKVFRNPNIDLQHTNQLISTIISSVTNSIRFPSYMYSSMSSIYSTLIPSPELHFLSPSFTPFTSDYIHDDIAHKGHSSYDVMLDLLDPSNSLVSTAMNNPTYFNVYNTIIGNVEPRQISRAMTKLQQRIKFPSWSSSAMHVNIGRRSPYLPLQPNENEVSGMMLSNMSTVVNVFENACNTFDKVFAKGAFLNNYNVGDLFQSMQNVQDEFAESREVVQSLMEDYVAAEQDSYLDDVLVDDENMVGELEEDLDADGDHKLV
Assay: co-IP; anti-HA immunoprecipitation of Tub4-6HA from lysates of SPC97-5FLAG TUB4-6HA cells carrying pRS305 with TUB4 alleles; Protein G Dynabeads, 4°C, 50 mM Tris-HCl pH 7.5, 150 mM NaCl, 0.1% Triton X-100; blots with anti-Tub4 and anti-FLAG

B1: Spc97 with five copies of the FLAG epitope (protein, UniProt P38863 1-823)
chain: MEIKEVDDRAELLRYTNNIPLLGKLVNHQPLWSTNPKLKSFSLEKISAPDQRRVQEALVVKDLLNVLIGLEGTYIRYFNDYEPSDPETPIEFKIAKKMDPSFKTFSRRIVRYGKQYMILTRAYEKWSDTSFGMVLQRFAYEIRRFLEDVYLKTLVERLERDFNKVPNFSIRELEQIINETEVNKQMELLYNIYEEIFREIEERRTNQSSQEDFNNFMDSMKNESSLHLRLMVAFDTTVYPVPKGGAILKIFQQKILENLGDRSSVMFLKKLLNNISQDYCTMLYEWLTQGILNDPYQEFMTYDDLEGKTDNIFDTRDRAWDTQYFIRKDVLLRDCDSEEDKNLLFKMLRTGILLKVVRASLQIPTIPSNSSDITIQEINDFADLMEGSNLELYVDKCYSRANEIFLKLFFQGYDLINVLKHLQQIFLGYQSGHNVLKFLTKNMGELTKHYRNDNNANYDKLLQNFELERQSENPNNLMRQLLMIQFDTETLPQVLSHYLQIYPEVPENNSANDDSDPLMHANNFKNMNAILFDELSKERTGAYHGSNLELYTPKSAIYHLKFDINIPYPLNIIISRTCMIKYQIILRYQLVLQYHSRLLDETWMDLNKTPSWKYRGYSHTVKRRIVRATRVLHAKMNHFIKTIMEYFNQNVIDKEVYSLEKCYRNPTLAVAIQNELEGGLTNIMTNRCLSDLIPLQLQIFDIVYKFCKFIKSMRAKLCQLDPVLYEKHKSGMMKTLNEGYRTNNGGQEDVGYQEDAALELIQKLIEYISNASSIFRKCLINFTQELSTEKFDFYDSSSVDAAGIERVLYSIVPPRSASASSQR
binding: binds
